Experimental data taken from publication PMC10850099.
These are yes or no findings as the source states them, for the method shown. Binding seen in cells or lysates may run through a third protein. Here binding means that the protein was enriched with, or labelled near, the bait; the list need not be complete. Where a sequence is shown, tags or fusion partners need not be part of it.

Protein sequences, listed by entry. Tags and fused reporters are not part of them.
UniProt Q9UJQ4: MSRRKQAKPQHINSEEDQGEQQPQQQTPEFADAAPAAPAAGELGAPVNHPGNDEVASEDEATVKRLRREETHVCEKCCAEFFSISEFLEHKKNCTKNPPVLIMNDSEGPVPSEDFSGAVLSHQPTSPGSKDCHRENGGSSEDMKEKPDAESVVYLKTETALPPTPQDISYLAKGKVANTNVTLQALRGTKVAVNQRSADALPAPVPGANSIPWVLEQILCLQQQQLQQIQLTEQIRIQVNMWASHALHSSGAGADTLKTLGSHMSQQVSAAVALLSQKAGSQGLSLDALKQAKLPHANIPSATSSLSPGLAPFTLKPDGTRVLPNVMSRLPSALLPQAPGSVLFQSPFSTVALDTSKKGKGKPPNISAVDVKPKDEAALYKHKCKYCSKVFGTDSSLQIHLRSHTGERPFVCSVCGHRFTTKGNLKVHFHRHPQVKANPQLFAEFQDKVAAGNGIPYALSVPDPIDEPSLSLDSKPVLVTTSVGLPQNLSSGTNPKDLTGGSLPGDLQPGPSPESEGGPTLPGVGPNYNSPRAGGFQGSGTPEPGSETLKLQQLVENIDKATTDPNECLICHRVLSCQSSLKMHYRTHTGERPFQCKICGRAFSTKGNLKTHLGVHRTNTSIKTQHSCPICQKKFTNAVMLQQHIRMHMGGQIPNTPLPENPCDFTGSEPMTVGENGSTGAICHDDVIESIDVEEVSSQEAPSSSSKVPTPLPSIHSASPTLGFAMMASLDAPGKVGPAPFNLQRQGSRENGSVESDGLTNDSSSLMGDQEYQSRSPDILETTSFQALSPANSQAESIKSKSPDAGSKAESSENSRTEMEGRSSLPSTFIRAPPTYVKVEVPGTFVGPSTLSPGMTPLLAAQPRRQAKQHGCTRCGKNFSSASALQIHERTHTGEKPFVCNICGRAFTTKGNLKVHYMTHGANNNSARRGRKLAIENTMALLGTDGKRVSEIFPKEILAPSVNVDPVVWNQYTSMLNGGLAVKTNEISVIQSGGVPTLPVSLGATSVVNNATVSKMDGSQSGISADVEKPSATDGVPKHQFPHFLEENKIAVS

T1: Flag-HA-tagged wild type (WT)-REN (UniProt Q693B1)
T1 sequence: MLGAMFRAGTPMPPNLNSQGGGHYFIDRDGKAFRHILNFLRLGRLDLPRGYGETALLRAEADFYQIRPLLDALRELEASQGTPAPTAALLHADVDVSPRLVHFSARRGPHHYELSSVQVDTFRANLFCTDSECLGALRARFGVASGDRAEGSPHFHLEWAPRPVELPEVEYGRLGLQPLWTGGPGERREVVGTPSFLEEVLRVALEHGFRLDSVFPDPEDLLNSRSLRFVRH

T2: Flag-HA-tagged wild type (WT)-REN, Q693B1
T2 chain: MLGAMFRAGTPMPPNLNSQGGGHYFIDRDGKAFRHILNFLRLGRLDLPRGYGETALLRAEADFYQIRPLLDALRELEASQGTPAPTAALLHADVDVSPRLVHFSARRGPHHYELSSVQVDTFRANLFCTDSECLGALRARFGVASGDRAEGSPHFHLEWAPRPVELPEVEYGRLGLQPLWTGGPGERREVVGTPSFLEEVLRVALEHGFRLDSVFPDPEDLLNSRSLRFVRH


Key:
[1] = target: T1, Flag-HA-tagged wild type (WT)-REN; assay: affinity purification with mass spectrometry; Flag-HA-REN expressed in HEK293T, MG132 10 µM for 5 h; lysis in 50 mM Tris-HCl pH 7.5, 150 mM NaCl, 1 mM EDTA, 0.5% NP40; anti-Flag agarose, elution with Flag peptide, then anti-HA resin; gel bands digested, LTQ Orbitrap XL
[2] = target: T2, Flag-HA-tagged wild type (WT)-REN, …; assay: as above; conditions: remark: other sources report otherwise

binding [1] | binding [2] | Molecule
binds | – | endogenous SALL4 (from UniProt Q9UJQ4 1-1053)
– | binds | KCTD15, Q96SI1 1-283 (protein) MPHRKERPSGSSLHTHGSTGTAEGGNMSRLSLTRSPVSPLAAQGIPLPAQLTKSNAPVHIDVGGHMYTSSLATLTKYPDSRISRLFNGTEPIVLDSLKQHYFIDRDGEIFRYVLSFLRTSKLLLPDDFKDFSLLYEEARYYQLQPMVRELERWQQEQEQRRRSRACDCLVVRVTPDLGERIALSGEKALIEEVFPETGDVMCNSVNAGWNQDPTHVIRFPLNGYCRLNSVQVLERLFQRGFSVAASCGGGVDSSQFSEYVLCREERRPQPTPTAVRIKQEPLD
